Assay results from the supplement of paper PMC10849652.
The list shows a part of the results.

Amino acid sequences for entries named in this document (tags omitted). A change or cut given only in a name is not applied to a line headed by its entry.
UniProt Q96MH2: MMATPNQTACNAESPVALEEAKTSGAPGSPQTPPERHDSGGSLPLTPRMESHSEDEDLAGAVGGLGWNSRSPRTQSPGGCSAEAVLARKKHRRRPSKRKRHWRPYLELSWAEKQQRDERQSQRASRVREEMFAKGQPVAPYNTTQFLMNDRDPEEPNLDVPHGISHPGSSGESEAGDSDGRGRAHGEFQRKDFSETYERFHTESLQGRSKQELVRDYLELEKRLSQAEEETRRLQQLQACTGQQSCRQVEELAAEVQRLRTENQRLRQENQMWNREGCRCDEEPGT
UniProt Q969F1: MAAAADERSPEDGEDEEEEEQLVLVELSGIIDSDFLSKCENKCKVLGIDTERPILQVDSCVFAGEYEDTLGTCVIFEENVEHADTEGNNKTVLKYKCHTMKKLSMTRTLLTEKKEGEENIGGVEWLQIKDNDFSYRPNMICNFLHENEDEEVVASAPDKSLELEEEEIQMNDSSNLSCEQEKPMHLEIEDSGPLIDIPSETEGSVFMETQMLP
UniProt Q9NRZ9: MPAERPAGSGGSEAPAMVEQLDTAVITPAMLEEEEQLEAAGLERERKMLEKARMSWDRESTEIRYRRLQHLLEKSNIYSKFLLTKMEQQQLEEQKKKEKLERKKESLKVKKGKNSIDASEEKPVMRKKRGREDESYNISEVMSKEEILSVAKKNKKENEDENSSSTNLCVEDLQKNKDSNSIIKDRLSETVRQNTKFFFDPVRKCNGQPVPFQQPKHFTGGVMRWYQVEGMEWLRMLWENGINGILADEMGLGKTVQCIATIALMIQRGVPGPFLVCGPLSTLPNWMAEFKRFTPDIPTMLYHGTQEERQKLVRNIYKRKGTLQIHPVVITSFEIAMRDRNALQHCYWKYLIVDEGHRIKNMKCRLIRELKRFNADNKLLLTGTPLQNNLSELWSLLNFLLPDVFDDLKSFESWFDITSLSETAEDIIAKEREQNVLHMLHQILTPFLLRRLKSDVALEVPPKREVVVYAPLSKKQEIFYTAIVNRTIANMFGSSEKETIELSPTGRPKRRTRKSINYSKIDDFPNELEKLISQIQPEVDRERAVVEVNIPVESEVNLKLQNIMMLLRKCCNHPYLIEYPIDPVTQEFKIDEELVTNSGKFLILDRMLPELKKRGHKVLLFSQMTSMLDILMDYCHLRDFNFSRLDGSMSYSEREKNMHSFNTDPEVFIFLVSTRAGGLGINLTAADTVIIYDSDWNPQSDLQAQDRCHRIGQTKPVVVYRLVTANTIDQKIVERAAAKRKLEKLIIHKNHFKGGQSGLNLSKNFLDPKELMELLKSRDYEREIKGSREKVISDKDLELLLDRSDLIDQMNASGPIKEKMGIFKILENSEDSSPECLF
UniProt Q9Y4D8: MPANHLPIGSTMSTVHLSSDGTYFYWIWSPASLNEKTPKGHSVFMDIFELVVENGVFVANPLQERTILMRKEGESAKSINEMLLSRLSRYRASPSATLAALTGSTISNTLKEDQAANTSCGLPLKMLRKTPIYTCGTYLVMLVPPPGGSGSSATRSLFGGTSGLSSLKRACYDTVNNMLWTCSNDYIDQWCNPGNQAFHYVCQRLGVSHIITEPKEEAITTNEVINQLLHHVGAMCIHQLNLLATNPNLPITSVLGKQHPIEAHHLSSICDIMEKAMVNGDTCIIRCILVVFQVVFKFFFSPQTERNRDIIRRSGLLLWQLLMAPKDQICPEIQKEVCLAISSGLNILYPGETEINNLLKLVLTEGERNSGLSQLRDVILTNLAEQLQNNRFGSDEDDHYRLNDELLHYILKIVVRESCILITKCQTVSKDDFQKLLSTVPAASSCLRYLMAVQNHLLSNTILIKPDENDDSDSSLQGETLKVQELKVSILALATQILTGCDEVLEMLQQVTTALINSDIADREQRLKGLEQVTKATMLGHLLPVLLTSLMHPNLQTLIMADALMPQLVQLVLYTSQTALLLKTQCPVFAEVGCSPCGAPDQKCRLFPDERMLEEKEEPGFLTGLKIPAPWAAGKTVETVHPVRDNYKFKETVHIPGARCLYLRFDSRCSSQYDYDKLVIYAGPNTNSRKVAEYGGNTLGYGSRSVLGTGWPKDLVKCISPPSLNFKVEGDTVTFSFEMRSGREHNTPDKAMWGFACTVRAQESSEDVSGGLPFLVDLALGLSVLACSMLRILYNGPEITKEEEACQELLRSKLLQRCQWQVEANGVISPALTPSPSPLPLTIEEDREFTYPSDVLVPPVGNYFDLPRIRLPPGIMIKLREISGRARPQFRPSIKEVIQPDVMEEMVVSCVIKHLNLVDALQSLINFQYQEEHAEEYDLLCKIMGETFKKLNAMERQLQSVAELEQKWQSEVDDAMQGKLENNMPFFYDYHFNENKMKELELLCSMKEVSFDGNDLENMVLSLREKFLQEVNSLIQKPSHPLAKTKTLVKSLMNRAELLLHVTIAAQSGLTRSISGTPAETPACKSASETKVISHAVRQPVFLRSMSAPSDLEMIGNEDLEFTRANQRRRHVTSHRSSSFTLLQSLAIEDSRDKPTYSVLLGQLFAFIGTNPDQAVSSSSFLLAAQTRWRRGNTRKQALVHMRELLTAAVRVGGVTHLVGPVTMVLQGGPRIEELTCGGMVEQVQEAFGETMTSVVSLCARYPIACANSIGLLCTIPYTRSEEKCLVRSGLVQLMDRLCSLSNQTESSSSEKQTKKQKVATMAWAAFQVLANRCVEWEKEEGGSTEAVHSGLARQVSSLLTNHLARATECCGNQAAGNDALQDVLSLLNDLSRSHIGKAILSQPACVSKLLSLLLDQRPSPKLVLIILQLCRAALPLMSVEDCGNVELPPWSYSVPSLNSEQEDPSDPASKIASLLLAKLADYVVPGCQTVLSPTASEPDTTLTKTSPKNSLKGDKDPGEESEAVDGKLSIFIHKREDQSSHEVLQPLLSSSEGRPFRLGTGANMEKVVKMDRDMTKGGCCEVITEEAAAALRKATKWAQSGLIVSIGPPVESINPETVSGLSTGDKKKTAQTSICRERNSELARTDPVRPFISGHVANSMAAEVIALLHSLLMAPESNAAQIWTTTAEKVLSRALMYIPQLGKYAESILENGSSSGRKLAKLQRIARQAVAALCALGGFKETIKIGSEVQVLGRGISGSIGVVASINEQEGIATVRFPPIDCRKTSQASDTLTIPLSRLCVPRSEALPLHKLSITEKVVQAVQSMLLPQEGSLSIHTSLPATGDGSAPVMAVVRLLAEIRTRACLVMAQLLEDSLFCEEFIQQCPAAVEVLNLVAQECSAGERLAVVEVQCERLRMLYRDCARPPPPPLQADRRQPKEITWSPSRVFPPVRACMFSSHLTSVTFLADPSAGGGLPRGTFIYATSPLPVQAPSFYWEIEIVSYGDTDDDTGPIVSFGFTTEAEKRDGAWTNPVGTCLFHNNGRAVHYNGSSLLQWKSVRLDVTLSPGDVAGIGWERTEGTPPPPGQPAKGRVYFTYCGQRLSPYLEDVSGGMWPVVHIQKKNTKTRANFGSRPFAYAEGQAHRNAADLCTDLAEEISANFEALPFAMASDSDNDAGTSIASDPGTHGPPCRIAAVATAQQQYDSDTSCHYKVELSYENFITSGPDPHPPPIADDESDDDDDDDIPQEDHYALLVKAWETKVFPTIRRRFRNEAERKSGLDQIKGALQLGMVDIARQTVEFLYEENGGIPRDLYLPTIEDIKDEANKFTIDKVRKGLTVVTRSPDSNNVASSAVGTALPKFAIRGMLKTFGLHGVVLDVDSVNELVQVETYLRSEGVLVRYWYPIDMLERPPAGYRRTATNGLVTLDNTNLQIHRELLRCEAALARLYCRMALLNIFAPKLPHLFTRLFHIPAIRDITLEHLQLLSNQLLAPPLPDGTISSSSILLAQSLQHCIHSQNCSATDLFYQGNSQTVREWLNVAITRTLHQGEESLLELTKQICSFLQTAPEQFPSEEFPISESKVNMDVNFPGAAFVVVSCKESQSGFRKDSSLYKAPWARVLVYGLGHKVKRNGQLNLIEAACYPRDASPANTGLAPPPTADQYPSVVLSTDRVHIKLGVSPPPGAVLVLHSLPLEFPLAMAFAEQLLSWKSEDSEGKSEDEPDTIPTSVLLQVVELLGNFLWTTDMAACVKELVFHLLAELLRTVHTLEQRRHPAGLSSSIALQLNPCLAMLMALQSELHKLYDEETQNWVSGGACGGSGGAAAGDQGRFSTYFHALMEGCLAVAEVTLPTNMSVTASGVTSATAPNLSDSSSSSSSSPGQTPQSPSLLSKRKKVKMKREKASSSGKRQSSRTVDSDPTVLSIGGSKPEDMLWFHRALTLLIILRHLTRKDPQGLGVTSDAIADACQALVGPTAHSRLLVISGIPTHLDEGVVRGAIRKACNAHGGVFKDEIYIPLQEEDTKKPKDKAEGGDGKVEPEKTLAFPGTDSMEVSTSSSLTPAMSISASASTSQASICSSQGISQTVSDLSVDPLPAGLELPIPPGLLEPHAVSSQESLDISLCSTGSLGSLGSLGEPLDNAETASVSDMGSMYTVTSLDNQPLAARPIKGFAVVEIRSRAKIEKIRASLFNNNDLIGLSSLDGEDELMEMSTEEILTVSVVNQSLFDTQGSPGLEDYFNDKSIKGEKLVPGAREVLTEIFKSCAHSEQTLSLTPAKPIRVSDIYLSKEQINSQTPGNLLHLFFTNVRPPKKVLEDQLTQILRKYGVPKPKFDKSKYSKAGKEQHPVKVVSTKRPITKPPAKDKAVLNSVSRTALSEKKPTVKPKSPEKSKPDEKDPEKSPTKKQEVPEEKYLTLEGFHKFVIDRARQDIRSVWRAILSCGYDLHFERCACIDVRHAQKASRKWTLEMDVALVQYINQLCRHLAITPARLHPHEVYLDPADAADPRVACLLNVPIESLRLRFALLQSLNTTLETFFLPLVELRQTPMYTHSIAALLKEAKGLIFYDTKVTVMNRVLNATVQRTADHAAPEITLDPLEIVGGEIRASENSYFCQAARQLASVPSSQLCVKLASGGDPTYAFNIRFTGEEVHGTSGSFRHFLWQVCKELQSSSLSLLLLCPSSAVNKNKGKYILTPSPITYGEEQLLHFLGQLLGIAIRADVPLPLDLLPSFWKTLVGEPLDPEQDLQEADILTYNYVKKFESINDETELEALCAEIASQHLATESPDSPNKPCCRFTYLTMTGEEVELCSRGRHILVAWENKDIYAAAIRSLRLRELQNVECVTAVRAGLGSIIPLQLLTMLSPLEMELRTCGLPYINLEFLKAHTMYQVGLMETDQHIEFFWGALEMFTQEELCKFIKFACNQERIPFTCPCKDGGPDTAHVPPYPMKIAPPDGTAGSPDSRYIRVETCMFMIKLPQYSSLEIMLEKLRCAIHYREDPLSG
UniProt Q8N3Z3: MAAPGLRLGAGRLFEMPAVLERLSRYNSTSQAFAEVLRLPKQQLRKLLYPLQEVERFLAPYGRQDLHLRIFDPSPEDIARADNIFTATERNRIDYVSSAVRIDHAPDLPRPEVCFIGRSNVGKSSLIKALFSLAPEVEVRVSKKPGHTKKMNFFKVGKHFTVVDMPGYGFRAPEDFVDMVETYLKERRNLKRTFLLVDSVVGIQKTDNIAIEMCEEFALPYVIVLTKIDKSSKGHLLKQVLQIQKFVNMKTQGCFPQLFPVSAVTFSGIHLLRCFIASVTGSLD
UniProt Q9Y5Q9: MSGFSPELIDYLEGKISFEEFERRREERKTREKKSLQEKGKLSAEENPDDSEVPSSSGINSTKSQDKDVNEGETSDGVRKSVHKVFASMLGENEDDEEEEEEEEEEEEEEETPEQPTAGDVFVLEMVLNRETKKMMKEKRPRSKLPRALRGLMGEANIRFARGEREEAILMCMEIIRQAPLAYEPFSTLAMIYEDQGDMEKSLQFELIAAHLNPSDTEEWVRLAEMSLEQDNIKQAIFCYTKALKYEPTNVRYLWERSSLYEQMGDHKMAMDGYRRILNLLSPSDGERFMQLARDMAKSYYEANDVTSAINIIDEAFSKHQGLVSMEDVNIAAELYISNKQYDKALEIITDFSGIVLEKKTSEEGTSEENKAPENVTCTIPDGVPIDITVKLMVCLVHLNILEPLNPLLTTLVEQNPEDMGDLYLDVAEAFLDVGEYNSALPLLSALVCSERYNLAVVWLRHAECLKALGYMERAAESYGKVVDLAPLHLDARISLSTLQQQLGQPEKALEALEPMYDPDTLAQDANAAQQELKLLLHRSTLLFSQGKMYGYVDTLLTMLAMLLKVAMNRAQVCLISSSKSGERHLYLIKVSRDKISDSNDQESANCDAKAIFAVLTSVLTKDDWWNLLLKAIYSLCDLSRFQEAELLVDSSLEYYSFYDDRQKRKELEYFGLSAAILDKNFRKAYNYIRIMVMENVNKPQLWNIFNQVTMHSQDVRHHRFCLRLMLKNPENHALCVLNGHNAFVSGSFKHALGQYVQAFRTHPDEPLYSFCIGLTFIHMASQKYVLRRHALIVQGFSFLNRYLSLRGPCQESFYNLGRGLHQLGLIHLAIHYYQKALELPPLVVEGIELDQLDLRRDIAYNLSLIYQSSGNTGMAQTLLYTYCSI

Legend:
Experiment in all cases: log2 fold change, soluble protein after heating vs DMSO (PISA); higher = thermal stabilisation; K562 cells, 10 uM, 30 min; active = over 0.2 and 3.5 SD of the protein, either way, in both replicates (recomputed)
[1] = compound: NC1(c2ccc(-c3nc4ccn5c(=O)[nH]nc5c4cc3-c3ccccc3)cc2)CCC1
Method in brief: (§1)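 Values are thermal stability changes relative to control samples and are taken from duplicates. They are stated as log2 fold changes. Before quantification by TMTpro 16plex LC-MS/MS with equalised channel sums, K562 cells at 2×10^6 cells/mL were treated with 10 μM compound for 30 min, heated in aliquots for 3 min across 48°C-58°C, pooled, extracted in PBS with 0.5% NP-40 at 4°C, and centrifuged at 21,000xg for 90 min to give the soluble supernatant.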

[2] = compound: O=C(O)c1ccc2c(c1)nc(Nc1cccc(Cl)c1)c1ccncc12 [silmitasertib]
Method in brief: as §1

[3] = compound: O=C1NC(=O)C(c2cnc3ccccn23)=C1c1cn2c3c(cc(F)cc13)CN(C(=O)N1CCCCC1)CC2
Method in brief: as §1

[4] = compound: O=C(CCCCCCNC(=O)c1cnc(N(c2ccccc2)c2ccccc2Cl)nc1)NO [citarinostat]
Method in brief: as §1

[5] = compound: c1cc(OCCN2CCCCC2)cc(-c2n[nH]c3ccc(-c4nnc[nH]4)cc23)c1
Method in brief: as §1

[6] = compound: NC(=O)c1cnc(N[C@@H]2CCCC[C@@H]2N)nc1Nc1cccc(-n2nccn2)c1
Method in brief: as §1

[7] = compound: O=C(CCCCCCC(=O)Nc1ccccc1)NO [vorinostat]
Method in brief: as §1

[8] = compound: NCC(=O)Nc1ccc(-n2nc(C(F)(F)F)cc2-c2ccc3c(ccc4ccccc43)c2)cc1
Method in brief: as §1

[9] = compound: NC(=O)Nc1cc(-c2cccc(F)c2)sc1C(=O)N[C@H]1CCCNC1
Method in brief: as §1

[10] = compound: Nc1ccccc1NC(=O)c1ccc(CNC(=O)OCc2cccnc2)cc1 [entinostat]
Method in brief: as §1

Measured: log2 fold change

HGFAC (UniProt Q04756)
inactive: [1] 0.132 | [2] 0.161 | [3] 0.215

H1-0 (UniProt P07305)
inactive: [4] -0.123 | [5] 0.132

HES1 (UniProt Q14469)
inactive: [6] -0.181 | [1] -0.015 | [7] 0.327 | [2] -0.052

HAUS3 (UniProt Q68CZ6)
inactive: [6] -0.076 | [1] -0.059 | [8] 0.121 | [4] -0.045 | [2] 0.103 | [3] 0.119 | [5] -0.128

HGD (UniProt Q93099)
inactive: [9] 0 | [10] -0.1 | [3] 0.029

HEXIM2 (UniProt Q96MH2)
inactive: [8] 0.131 | [7] -0.285 | [3] -0.165

GTF3C6 (UniProt Q969F1)
inactive: [9] -0.04 | [1] -0.047 | [8] 0.085 | [10] -0.021 | [7] -0.061 | [4] 0.086 | [2] 0.131 | [3] 0.164 | [5] -0.165

GZF1 (UniProt Q9H116)
inactive: [9] 0.047 | [6] 0.195 | [8] -0.121 | [10] -0.077

HAUS2 (UniProt Q9NVX0)
inactive: [6] 0.106 | [1] 0.074 | [4] -0.191 | [2] 0.13 | [5] -0.04

HGF (UniProt P14210)
inactive: [9] -0.109 | [1] -0.159 | [10] -0.074 | [4] -0.04 | [2] 0.078 | [3] -0.048 | [5] 0.117

HBB (UniProt P68871)
inactive: [6] 1.75 | [1] 0.151 | [4] 0.054 | [2] -0.122 | [5] -0.193

H3-3A (UniProt P84243)
inactive: [9] 0.072 | [1] -0.095 | [8] -0.096 | [10] 0.104 | [4] 0.157 | [2] -0.046 | [5] 0.028

HCFC1 (UniProt P51610)
inactive: [9] -0.072 | [1] -0.088 | [8] -0.012 | [10] -0.088 | [7] -0.17 | [4] -0.449 | [2] -0.056 | [5] 0.124

HERPUD2 (UniProt Q9BSE4)
inactive: [6] 0.042 | [8] 0.098

HDAC10 (UniProt Q969S8)
inactive: [6] 0.061 | [1] -0.076 | [8] -0.033 | [7] 0.208 | [4] 0.062 | [2] -0.271 | [5] -0.09

HACD2 (UniProt Q6Y1H2)
inactive: [1] -0.124 | [2] -0.046

HELLS (UniProt Q9NRZ9)
inactive: [7] 0.408 | [3] -0.231

HAUS8 (UniProt Q9BT25)
inactive: [6] -0.038 | [1] 0.115 | [8] 0.197 | [7] 0.274 | [2] -0.008

HABP4 (UniProt Q5JVS0)
inactive: [3] -0.065

HEXD isoform 2 (UniProt Q8WVB3)
inactive: [9] 0.099 | [8] -0.012 | [10] 0.059 | [7] 0.064 | [3] 0.031

GTF2H1 (UniProt P32780)
inactive: [1] 0.126 | [8] 0.128 | [7] -0.093 | [4] 0.146 | [2] -0.087 | [5] -0.192

HDAC8 (UniProt Q9BY41)
inactive: [3] 0.244

Pulled one by one from the list above (two):
HEXD isoform 2 (UniProt Q8WVB3)
inactive: [9] 0.099 | [8] -0.012 | [10] 0.059 | [7] 0.064 | [3] 0.031

HAUS8 (UniProt Q9BT25)
inactive: [6] -0.038 | [1] 0.115 | [8] 0.197 | [7] 0.274 | [2] -0.008

(list continues)

HAUS7 isoform 2 (UniProt Q99871)
inactive: [6] 0.066 | [8] 0.006

GYG2 (UniProt O15488)
inactive: [1] -0.136 | [2] -0.032

GXYLT1 (UniProt Q4G148)
inactive: [6] -0.04 | [1] -0.031 | [8] 0.002 | [7] 0.233 | [4] 0.323 | [2] -0.11 | [3] 0.414 | [5] -0.02

HECTD4 (UniProt Q9Y4D8)
inactive: [1] 0.005 | [8] 0.065 | [2] -0.09

HAGHL (UniProt Q6PII5)
inactive: [9] 0.078 | [1] -0.03 | [10] 0.004 | [4] -0.065 | [2] 0.075 | [3] 0.146 | [5] 0.036

H3-2 (UniProt Q5TEC6)
inactive: [9] -0.29 | [1] 0.05 | [8] -0.447 | [10] -0.077 | [7] 0.29 | [4] -0.251 | [2] 0.39 | [5] -0.342

GSTA1 (UniProt P08263)
inactive: [9] 0.22 | [8] -0.101 | [10] 0.126 | [3] 0.332

HBD (UniProt E9PEW8)
inactive: [1] 0.032 | [7] -0.053 | [2] 0.023

GTPBP8 (UniProt Q8N3Z3)
inactive: [8] -0.135 | [4] 0.007 | [5] -0.019

GSTT1 (UniProt P30711)
inactive: [6] 0.012 | [1] 0.03 | [8] 0.08 | [7] -0.022 | [4] -0.018 | [2] -0.074 | [3] 0.019 | [5] -0.012

HEATR3 (UniProt Q7Z4Q2)
inactive: [9] 0 | [1] -0.248 | [8] -0.103 | [10] 0.052 | [7] -0.017 | [4] 0.075 | [2] 0.02 | [3] -0.051 | [5] 0.047

HERPUD1 (UniProt Q15011)
inactive: [1] -0.038 | [8] 0.085 | [2] 0.248

GTF3C3 (UniProt Q9Y5Q9)
inactive: [1] 0.201 | [7] 0.012 | [4] -0.031 | [2] -0.222 | [5] -0.248
